The target in one experiment is DGKa (Homo sapiens (Human), UniProt P23743). As to the kind of experiment: DGK ADP-Glo Kinase Assay (DGKa). The experiment is classed as biochemical. Particulars: read-out: DGKa kinase IC50, 10 nM DGKa, 15 uM ATP. (In general: In ADP-Glo the light output rises with the ADP produced.)
In another experiment the target is DGKz (Homo sapiens (Human), UniProt Q13574). Nature of the experiment: DGK ADP-Glo Kinase Assay (DGKz). The class given is biochemical. Particulars: read-out: DGKz kinase IC50, 5 nM DGKz, 15 uM ATP.

Protein sequences, listed by entry. Tags and fused reporters are not part of them.
UniProt P23743, whole entry: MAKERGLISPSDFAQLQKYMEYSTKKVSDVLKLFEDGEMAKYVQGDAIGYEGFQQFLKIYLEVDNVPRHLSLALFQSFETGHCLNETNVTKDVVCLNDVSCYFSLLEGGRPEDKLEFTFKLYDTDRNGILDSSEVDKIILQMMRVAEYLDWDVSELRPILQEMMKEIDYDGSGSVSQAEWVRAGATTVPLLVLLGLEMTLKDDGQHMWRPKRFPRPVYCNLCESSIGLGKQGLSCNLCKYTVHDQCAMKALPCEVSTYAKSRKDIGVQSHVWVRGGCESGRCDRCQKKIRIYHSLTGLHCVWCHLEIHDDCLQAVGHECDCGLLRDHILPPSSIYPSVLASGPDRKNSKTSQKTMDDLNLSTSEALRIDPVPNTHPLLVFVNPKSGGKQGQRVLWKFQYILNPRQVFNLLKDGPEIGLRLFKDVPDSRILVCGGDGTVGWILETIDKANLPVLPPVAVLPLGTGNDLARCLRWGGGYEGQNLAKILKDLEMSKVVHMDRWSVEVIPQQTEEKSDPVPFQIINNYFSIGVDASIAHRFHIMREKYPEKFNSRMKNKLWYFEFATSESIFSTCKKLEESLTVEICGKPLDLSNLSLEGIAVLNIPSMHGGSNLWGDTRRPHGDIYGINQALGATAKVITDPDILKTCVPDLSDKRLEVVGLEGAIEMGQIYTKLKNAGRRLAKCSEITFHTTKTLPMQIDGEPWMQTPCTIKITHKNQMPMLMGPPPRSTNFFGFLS
UniProt Q13574, whole entry: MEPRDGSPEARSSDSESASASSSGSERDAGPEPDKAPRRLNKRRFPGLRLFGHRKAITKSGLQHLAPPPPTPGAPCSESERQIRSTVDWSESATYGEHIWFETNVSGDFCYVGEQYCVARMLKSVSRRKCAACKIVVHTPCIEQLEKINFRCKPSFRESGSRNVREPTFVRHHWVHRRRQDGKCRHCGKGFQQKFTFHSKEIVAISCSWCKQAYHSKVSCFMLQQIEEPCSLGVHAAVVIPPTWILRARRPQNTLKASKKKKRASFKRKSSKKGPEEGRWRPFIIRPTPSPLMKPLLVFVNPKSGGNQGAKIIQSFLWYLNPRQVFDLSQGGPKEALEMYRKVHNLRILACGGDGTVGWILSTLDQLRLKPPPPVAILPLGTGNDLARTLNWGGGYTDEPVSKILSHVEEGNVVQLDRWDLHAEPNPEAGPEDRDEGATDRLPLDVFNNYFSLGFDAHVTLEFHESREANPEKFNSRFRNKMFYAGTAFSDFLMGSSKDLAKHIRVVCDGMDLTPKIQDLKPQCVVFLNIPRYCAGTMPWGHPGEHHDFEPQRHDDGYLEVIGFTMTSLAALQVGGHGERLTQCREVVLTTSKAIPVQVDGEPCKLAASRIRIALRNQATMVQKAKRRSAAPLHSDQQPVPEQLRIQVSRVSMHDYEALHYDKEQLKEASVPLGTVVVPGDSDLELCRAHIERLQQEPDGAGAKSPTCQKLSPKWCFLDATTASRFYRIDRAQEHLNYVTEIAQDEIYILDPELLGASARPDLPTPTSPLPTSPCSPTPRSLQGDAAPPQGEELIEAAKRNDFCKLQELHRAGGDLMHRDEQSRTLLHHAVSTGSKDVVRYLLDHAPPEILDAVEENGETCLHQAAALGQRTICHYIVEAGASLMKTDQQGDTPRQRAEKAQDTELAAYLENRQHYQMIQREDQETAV

The structures appear in SMILES notation. The structures given here were assigned with low confidence; some may be wrong.

`CC[C@@H]1C[C@@H](c2nc3cc(C)ccc3o2)CCN1c1nc(=O)n(C)c2cc(OC3CCOC3)c(Cl)cc12` (single isomer, unassigned): the IC50 (commonly the point on the concentration scale where inhibition reaches its midpoint) on DGKa is less than 100 nM; at DGKz, more than 1000 nM.
Turning to `CC[C@H]1C[C@H](c2nc3cc(C)ccc3o2)CCN1c1nc(=O)n(C)c2cc(OC3CCOC3)c(Cl)cc12` (single isomer, unassigned), the IC50 on DGKa and at DGKz was less than 100 nM throughout.

For the origin of these results see patent publication US20250215014A1, “KINASE INHIBITORS, PREPARATION METHODS AND USES THEREOF” (InventisBio Co., Ltd., priority 2022, published 2025).
